One test concerns the target T1, CD44v6 peptide (human).
T1 sequence (peptide): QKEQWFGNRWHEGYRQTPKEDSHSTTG
Nature of the test: ELISA; direct ELISA; CD44v3 peptide or CD44v6 peptide coated at 4 μg/ml in PBS; various concentrations of rhCHI3L1 or rhIL-13Rα2 ECD (control BSA) added, 1 h at RT; detected with anti-CHI3L1 or anti-IL-13Rα2 antibody, absorbance at 450 nm; both purified. A general note: ELISA stands for enzyme-linked immunosorbent assay.

Test [1] deals with CD44 (endogenous, gastric cancer cells) (human (endogenous in AGS and MGC803)), P16070. Nature of the test: co-IP; lysates of AGS and MGC803 cells in IP buffer (20 mM Tris pH 7.5, 150 mM NaCl, 1% TritonX-100, 1 mM EDTA); control IgG or primary antibody with GammaBind Plus Sepharose, 4°C overnight; western blot. Conditions: remark: other sources report otherwise. On the technique in general: A western blot detects proteins with antibodies after separation by electrophoresis.

Results are given in words; binding and its absence hold for the method and conditions named. For some assays here: Binding seen in cells or lysates may run through a third protein. Some binding calls cover weakened binding; strength is not graded here.

B1: recombinant human IL-13Rα2 ECD (domain or fragment, UniProt Q14627 27-343)
chain: DTEIKVNPPQDFEIVDPGYLGYLYLQWQPPLSLDHFKECTVEYELKYRNIGSETWKTIITKNLHYKDGFDLNKGIEAKIHTLLPWQCTNGSEVQSSWAETTYWISPQGIPETKVQDMDCVYYNWQYLLCSWKPGIGVLLDTNYNLFYWYEGLDHALQCVDYIKADGQNIGCRFPYLEASDYKDFYICVNGSSENKPIRSSYFTFQLQNIVKPLPPVYLTFTRESSCEIKLKWSIPLGPIPARCFDYEIEIREDDTTLVTATVENETYTLKTTNETRQLCFVVRSKVNIYCSDDGIWSEWSDKQCWEGEDLSKKTLLR
As to B1, in the test with CD44v6 peptide (human), the binding entry is “no binding”.

B2: IL-13Rα2 (endogenous, gastric cancer cells), Q14627 27-380 (receptor)
chain: DTEIKVNPPQDFEIVDPGYLGYLYLQWQPPLSLDHFKECTVEYELKYRNIGSETWKTIITKNLHYKDGFDLNKGIEAKIHTLLPWQCTNGSEVQSSWAETTYWISPQGIPETKVQDMDCVYYNWQYLLCSWKPGIGVLLDTNYNLFYWYEGLDHALQCVDYIKADGQNIGCRFPYLEASDYKDFYICVNGSSENKPIRSSYFTFQLQNIVKPLPPVYLTFTRESSCEIKLKWSIPLGPIPARCFDYEIEIREDDTTLVTATVENETYTLKTTNETRQLCFVVRSKVNIYCSDDGIWSEWSDKQCWEGEDLSKKTLLRFWLPFGFILILVIFVTGLLLRKPNTYPKMIPEFFCDT
Take B2: the binding result in test [1] is “binds”.

These data come from PMC6117920.
